The values that follow are results of earlier work, collected in patent US20230225964A1, “MICROSTIRRING DEVICES AND TECHNIQUES FOR ENHANCING BIOAVAILABILITY OF ORALLY ADMINISTERED DRUGS” (The Regents of the University of California, priority 2022, published 2023).

Values after ≈ are worked out from the molar mass of the structure shown.

Take `CC(=O)Oc1ccccc1C(=O)O` [ASA, acetylsalicylic acid]: the solubility in water was 3000 µg/mL (≈ 16.7 mM).
